Assay results reported in publication PMC3606321.
No constants are given. Whether binding was seen depends on the method and setting. Some binding calls cover weakened binding; strength is not graded here. Sequences can lack the tags named with a protein.

Chains of the proteins cited; added tags and fusions are not shown. Lines headed by an entry give the natural chain unless they say otherwise; changes in a name come on top. A line that says so, or that is headed by a name, gives the form on record, which may keep a tag or linker.
UniProt P36873: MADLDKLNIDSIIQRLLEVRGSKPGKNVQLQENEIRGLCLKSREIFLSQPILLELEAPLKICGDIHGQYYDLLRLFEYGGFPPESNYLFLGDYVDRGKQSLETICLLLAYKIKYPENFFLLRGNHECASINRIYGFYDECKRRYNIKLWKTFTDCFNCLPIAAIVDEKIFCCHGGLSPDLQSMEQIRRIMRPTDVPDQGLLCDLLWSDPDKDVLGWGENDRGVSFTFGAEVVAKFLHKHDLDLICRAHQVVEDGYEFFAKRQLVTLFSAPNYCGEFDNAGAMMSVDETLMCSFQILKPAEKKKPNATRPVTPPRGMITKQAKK
purified recombinant PPP1CC2 (P36873-2, form named): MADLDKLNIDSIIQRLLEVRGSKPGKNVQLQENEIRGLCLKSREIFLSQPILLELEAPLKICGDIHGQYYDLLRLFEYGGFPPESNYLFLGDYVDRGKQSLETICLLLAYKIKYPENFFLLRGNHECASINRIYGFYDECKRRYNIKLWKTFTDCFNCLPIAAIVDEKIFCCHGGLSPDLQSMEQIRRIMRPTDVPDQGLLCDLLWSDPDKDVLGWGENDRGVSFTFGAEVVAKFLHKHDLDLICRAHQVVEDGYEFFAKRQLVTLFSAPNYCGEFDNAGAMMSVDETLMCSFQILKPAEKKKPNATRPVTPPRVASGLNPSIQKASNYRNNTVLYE

Target: T1, His-PPP1R2P3 (human) (UniProt Q6NXS1)
T1 sequence: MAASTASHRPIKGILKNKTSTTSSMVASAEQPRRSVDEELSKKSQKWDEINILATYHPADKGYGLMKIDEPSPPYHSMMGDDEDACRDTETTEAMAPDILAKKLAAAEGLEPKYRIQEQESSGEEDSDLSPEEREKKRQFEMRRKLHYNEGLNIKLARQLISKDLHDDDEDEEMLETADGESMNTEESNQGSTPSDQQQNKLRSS
Assay: far-Western, overlay or dot blot; 0.3 ug commercial PPP1R2 or His-PPP1R2P3 resolved by SDS-PAGE, transferred to nitrocellulose, overlaid with purified PPP1CC1 or PPP1CC2 (25 pmol/mL) in Tris buffered saline with Tween-20/BSA; detected with CBC3C or CBC502 antibodies; both purified

binding	Substance
binds	purified recombinant PPP1CC1 (from UniProt P36873 1-323) (enzyme)
binds	purified recombinant PPP1CC2 (from UniProt P36873-2 1-337) (enzyme)
